According to patent US9890175B2, “Taxane compound, and preparation method and use thereof” (JIANGSU TASLY DIYI PHARMACEUTICAL CO., LTD., priority 2013, dated 2018):

Assay: Caco-2 cell monolayer membrane transport assay (Papp and recovery)
Assay type: in vitro ADME
Settings: human; for Papp A→B: Caco-2, Papp A-B; for Papp B→A: Caco-2, Papp B-A

Work on `CC(C)NCC(O)COc1ccc(CC(N)=O)cc1` (stereo not drawn) [Atenolol, reference compound] yielded a Papp A→B (Mean) of 0.87 ×10⁻⁶ cm/s, a Papp A→B (Sample-01) of 1.07 ×10⁻⁶ cm/s and a Papp A→B (Sample-02) of 0.67 ×10⁻⁶ cm/s. The Papp B→A (Mean) was 0.53 ×10⁻⁶ cm/s, the Papp B→A (Sample-01) was 0.5 ×10⁻⁶ cm/s and the Papp B→A (Sample-02) was 0.55 ×10⁻⁶ cm/s.
